These results are taken from the supplement of paper PMC8728848.

The list shows a part of the results.

What all share (assay): glycan array binding signal (z-score within array); higher = stronger binding
Common to all, as to conditions: glycan notation: IUPAC condensed, linker removed

For assay [1], the target named is Neu5Gc(a2-8)Neu5Gc(a2-3)Gal(b1-4)GlcNAc. The method in brief: (§1)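 Arrays were curated from the Consortium for Functional Glycomics database, 3228 in total, and kept only where the protein sequence was available. Binding is expressed as a within-array Z-score. This score was averaged across arrays of the same protein sequence at different concentrations or buffers and across linkers, and negative values can be read as non-binding.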

In assay [2] the target is Neu5Gc(a2-8)Neu5Gc(a2-3)Gal(b1-4)GlcNAc(b1-3)Gal(b1-4)GlcNAc. The procedure, abridged: as §1
For assay [3], the target named is Neu5Gc(a2-8)Neu5Gc(a2-6)Gal(b1-4)GlcNAc. The procedure, abridged:
as §1

Assay [4] has as its target Neu5Gc(b2-6)Gal(b1-4)GlcNAc. The method in brief:
as §1

B1: Drgal1 (Danio rerio) (protein)
chain: MAGVLIQNMSFKVGQTLTITGVPKPDSTNFAINIGHSPEDIALHMNPRFDAHGDQCTIVCNSFQSGSWCEEHRDDNFPFIQDKEFQIKITFTNEEFLVTLPDGSEIHFPNRQGSEKYKYMYFEGEVRIQGVEIK
Regarding B1, the “glycan array binding signal (z-score)” value in assay [1] was -0.702; in assay [2], -0.663; in assay [3], -0.686; in assay [4], -0.465.
